# Measurements published in US6875727B2, “Use of macrolides in pest control” (Syngenta Crop Protection, Inc., priority 1998, dated 2005).
# Some results were stated once for a whole list of compounds, not compound by compound. Some compounds share one range, which may span the group rather than tell each member.
# Columns and labels:
# Aphis fabae = experiment: Seed-dressing action against Aphis fabae (bean seeds); format: in vivo; settings: bean seeds dressed with 0.1, 1 or 10 g active ingredient per kg of seed; evaluated 6 days after population
# Myzus persicae = experiment: Seed-dressing action against Myzus persicae (sugar beet seeds); format: in vivo; settings: sugar beet seeds dressed with 0.1, 1 or 10 g active ingredient per kg of seed; evaluated 2 and 7 days after population
Substance,"seed-dressing action (% action, reduction in population) (Aphis fabae)","seed-dressing action (% action, reduction in population) (Myzus persicae)"
4″-De-oxy-4″-epi-N-methylamino avermectin B1b/B1a [emamectin],good action (the good action corresponding to a destruction rate (mortality) of at least 50 to 60%),good action (the good action corresponding to a destruction rate (mortality) of at least 50 to 60%)
abamectin,good action (the good action corresponding to a destruction rate (mortality) of at least 50 to 60%),good action (the good action corresponding to a destruction rate (mortality) of at least 50 to 60%)
